PubChem BioAssay AID504791, Drosophila RNAi Screening Center – 2011
The screen tested about 23,000 reagents; this is an unselected part of those that have a named target and a result. Of all reagents, 199 (0.86%) are marked active. 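Plate-scaled ratios behind the calls are not deposited; printed light signals are raw; many rows marked increased or decreased are still called inactive.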 Entries without a mark were called inactive. Names joined by + are all predicted targets of the reagent. The record does not give: the direction of the score.

- Test: 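Genes of the fly required for silencing by miRNA, siRNA or endo-siRNA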 (primary screen)
- Cell system: Drosophila S2-derived reporter cells
- Knock-down reagent: long dsRNA against Drosophila genes, about 150-250 ng dsRNA per well (siRNA assay); about 80-120 ng (miRNA assay)
- Timing: about 5 days (siRNA assay); about 4 days (miRNA assay)
- Treatment: copper sulfate induction of reporters: 25 µM (siRNA assay); 200 mM stated (miRNA assay), 1-2 days before reading
- Measurement: 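Dual luciferase assay: Renilla to firefly signal ratio in each well, scaled to the mean ratio of its plate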
- Units: stable assay Renilla, run 1 in luminescence; stable assay firefly, run 1 in luminescence
- Rule for the call: 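a well was a first-pass pick when its plate-scaled ratio rose above 1.5 (siRNA assay) or 1.6 (miRNA assay), or dropped below 0.6; a gene counted only if two separate dsRNAs agreed on retest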

CG9691 [SID104198233] gave stable assay Renilla, run 1 = 5539; stable assay firefly, run 1 = 3.20e5.
For His3:CG33818 + His3:CG33857 + His3:CG33806 + 20 more [SID104201059], the entry reads stable siRNA reporter change reporter ratio lowered past the hit cutoff (active); stable assay Renilla, run 1 = 5671; stable assay firefly, run 1 = 7.34e5.
Against CR33318 [SID104202306], the values are stable assay Renilla, run 1 = 5064; stable assay firefly, run 1 = 4.03e5.
Against mRpS25 [SID104199390] the deposit lists stable assay Renilla, run 1 = 4666; stable assay firefly, run 1 = 4.20e5.
For CG8188 [SID104199882], the entry reads stable assay Renilla, run 1 = 3523; stable assay firefly, run 1 = 3.70e5.
After knock-down of Tssk [SID104194576] the results were stable assay Renilla, run 1 = 7566; stable assay firefly, run 1 = 4.06e5.
Against osi [SID104182723] the deposit lists stable assay Renilla, run 1 = 6663; stable assay firefly, run 1 = 5.21e5.
After knock-down of Dph1 [SID104189643] the results were stable assay Renilla, run 1 = 8721; stable assay firefly, run 1 = 4.39e5.
CG12278 [SID104194286] showed stable assay Renilla, run 1 = 6183; stable assay firefly, run 1 = 3.09e5.
With knock-down of CG15701 [SID104186364] the results were stable assay Renilla, run 1 = 7692; stable assay firefly, run 1 = 4.50e5.
After knock-down of CG4151 [SID104198143], the record shows stable assay Renilla, run 1 = 5516; stable assay firefly, run 1 = 3.26e5.
Silencing of milt [SID104180757] gave: stable assay Renilla, run 1 = 5894; stable assay firefly, run 1 = 3.81e5.
Silencing of milt [SID104180758] came out at: stable assay Renilla, run 1 = 5275; stable assay firefly, run 1 = 4.50e5.
milt [SID104182073] gave stable assay Renilla, run 1 = 20779; stable assay firefly, run 1 = 5.78e5.
PI31 [SID104187098] scored stable assay Renilla, run 1 = 8124; stable assay firefly, run 1 = 3.97e5.
After knock-down of SPE [SID104194927], the screen gave stable assay Renilla, run 1 = 8466; stable assay firefly, run 1 = 2.75e5.
After knock-down of CG42326 [SID104186275] the results were stable assay Renilla, run 1 = 6814; stable assay firefly, run 1 = 3.40e5.
For CG42326 [SID104186276], the entry reads stable assay Renilla, run 1 = 6426; stable assay firefly, run 1 = 2.67e5.
After knock-down of Rpn1 [SID104191066] the results were stable assay Renilla, run 1 = 7696; stable assay firefly, run 1 = 1.98e5.
Knock-down of ken [SID104184488] came out at: miRNA reporter change reporter ratio lowered past the hit cutoff; stable assay Renilla, run 1 = 12051; stable assay firefly, run 1 = 6.79e5.
Silencing of ken [SID104202553] came out at: stable assay Renilla, run 1 = 4487; stable assay firefly, run 1 = 3.94e5.
For CG15125 [SID104186339], the values are stable assay Renilla, run 1 = 5188; stable assay firefly, run 1 = 3.15e5.
Knock-down of cg [SID104187442] came out at: stable assay Renilla, run 1 = 4919; stable assay firefly, run 1 = 2.20e5.
cg [SID104202499] gave stable assay Renilla, run 1 = 4020; stable assay firefly, run 1 = 3.10e5.
With knock-down of Nplp2 [SID104189616], the screen gave stable assay Renilla, run 1 = 5356; stable assay firefly, run 1 = 2.90e5.
Silencing of Phb2 [SID104186304] gave: stable assay Renilla, run 1 = 4119; stable assay firefly, run 1 = 5.18e5.
Against CG3942 [SID104195317], the values are stable assay Renilla, run 1 = 6342; stable assay firefly, run 1 = 3.92e5.
Silencing of CG2124 [SID104198000] gave: stable assay Renilla, run 1 = 5168; stable assay firefly, run 1 = 4.18e5.

Just “stable assay firefly, run 1” (3 entries from above):
milt [SID104180758]	4.50e5
milt [SID104182073]	5.78e5
PI31 [SID104187098]	3.97e5
